Test results reported in the supplement of paper PMC10373366.
Structures can show the parent of a compound that is named as a salt. The list shows a part of the results. Many values rest on one well or one pass, so single values are uncertain.

What follows are compounds tested on A2780 (assay: cell growth inhibition ratio vs untreated control (CCK8); higher = stronger inhibition of cell viability). Details: 10 µM; 48 h.
Experimental: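 Natural product library (Topscience) screened at 10 µM final concentration for 48 h on ovarian cancer A2780 cells and patient-derived ovarian cancer cells (PDC) in 96-well plates; viability read by CCK8 and reported as inhibition ratio (%) relative to untreated control. Single-dose primary screen.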

SMILES | cell growth inhibition ratio
C[C@H]1[C@H](C)CC[C@]2(C(=O)O)CC[C@]3(C)C(=CC[C@@H]4[C@@]5(C)C[C@@H](O)[C@H](O)[C@@](C)(CO)[C@@H]5CC[C@]43C)[C@H]12 [Asiatic acid] | 9.24%
O=C1c2c(O)cc(O)cc2OC(c2ccc(O)c(O)c2)C1O (stereo not given) [Taxifolin (Dihydroquercetin)] | -19.2%
COc1ccc(-c2coc3cc(O)cc(O)c3c2=O)cc1 [Biochanin A] | 15.2%
COc1c(O)cc2occ(-c3ccc(O)cc3)c(=O)c2c1O [Tectorigenin] | 22.1%
C[C@@H]1O[C@@H](O[C@@H]2[C@@H](O)[C@H](OCCc3ccc(O)c(O)c3)O[C@H](CO)[C@H]2OC(=O)/C=C/c2ccc(O)c(O)c2)[C@H](O)[C@H](O)[C@H]1O [Verbascoside] | 5.14%
COc1cc2ccc(=O)oc2c(O[C@@H]2O[C@H](CO)[C@@H](O)[C@H](O)[C@H]2O)c1O [Fraxin] | 13.1%
CO[C@H]1[C@H](O)[C@@H](O)[C@@H](O)[C@H](O)[C@@H]1O [D-Pinitol] | 9.82%
CCC(C)(C)C(=O)O[C@H]1C[C@@H](C)C=C2C=C[C@H](C)[C@H](CC[C@@H]3C[C@@H](O)CC(=O)O3)[C@H]21 [Simvastatin] | 58.9%
COC(=O)c1ccc(O)cc1 [Methyl 4-hydroxybenzoate] | 16.4%
CC(C)=CCC[C@](C)(O[C@@H]1O[C@H](CO[C@@H]2OC[C@H](O)[C@H](O)[C@H]2O)[C@@H](O)[C@H](O)[C@H]1O)[C@H]1CC[C@]2(C)[C@@H]1[C@H](O)C[C@@H]1[C@@]3(C)CC[C@H](O[C@@H]4O[C@H](CO)[C@@H](O)[C@H](O)[C@H]4O[C@@H]4O[C@H](CO)[C@@H](O)[C@H](O)[C@H]4O)C(C)(C)[C@@H]3CC[C@]12C [Ginsenoside Rb2] | 8.8%
CCCCC[C@H](O)CC(=O)CCc1ccc(O)c(OC)c1 [6-Gingerol] | 24.2%
O=C(O)c1cc(O)c2c(c1)[C@@H]([C@H]1c3cc(C(=O)O)cc(O)c3C(=O)c3c(O[C@@H]4O[C@H](CO)[C@@H](O)[C@H](O)[C@H]4O)cccc31)c1cccc(O[C@@H]3O[C@H](CO)[C@@H](O)[C@H](O)[C@H]3O)c1C2=O [Sennoside B] | 32.9%
C[C@@H]1O[C@@H](O[C@H]2[C@H](Oc3cc(O)c(C(=O)CCc4ccc(O)cc4)c(O)c3)O[C@H](CO)[C@@H](O)[C@@H]2O)[C@H](O)[C@H](O)[C@H]1O [Naringin dihydrochalcone] | -1.1%
CN1CC(=O)NC1=N [Creatinine] | -14.8%
C[C@H](CCC(=O)NCCS(=O)(=O)O)[C@H]1CC[C@H]2[C@@H]3[C@H](O)C[C@@H]4C[C@H](O)CC[C@]4(C)[C@H]3C[C@H](O)[C@]12C [Taurocholic acid sodium salt hydrate] | -2.16%
C=CC[C@@H]1/C=C(\C)C[C@H](C)C[C@H](OC)[C@H]2O[C@@](O)(C(=O)C(=O)N3CCCC[C@H]3C(=O)O[C@H](/C(C)=C/[C@@H]3CC[C@@H](O)[C@H](OC)C3)[C@H](C)[C@@H](O)CC1=O)[C@H](C)C[C@@H]2OC [Tacrolimus (FK506)] | -5.93%
CC(C)=C[C@H]1C[C@](C)(O)[C@@H]2[C@H]3CC[C@@H]4[C@@]5(C)CC[C@H](O[C@@H]6OC[C@H](O)[C@H](O[C@@H]7O[C@H](CO)[C@@H](O)[C@H](O)[C@H]7O[C@@H]7OC[C@@H](O)[C@H](O)[C@H]7O)[C@H]6O[C@@H]6O[C@@H](C)[C@H](O)[C@@H](O)[C@H]6O)C(C)(C)[C@@H]5CC[C@@]4(C)[C@@]34CO[C@@]2(C4)O1 [Jujuboside B] | 14.8%
O=C1c2c(O)cccc2C([C@@H]2O[C@H](CO)[C@@H](O)[C@H](O)[C@H]2O)c2cc(CO)cc(O)c21 (stereo not given in full) [Aloin] | 5.67%
O=c1[nH]cnc2nc[nH]c12 [6-Hydroxypurine] | -1.29%
CC1=C(/C=C/C(C)=C/C=C/C(C)=C/C=C/C=C(C)/C=C/C=C(C)/C=C/C2=C(C)CCCC2(C)C)C(C)(C)CCC1 [Beta-Carotene] | -16.3%

SMILES | cell growth inhibition ratio
CC(/C=C/C=C(\C)C(=O)O[C@@H]1O[C@H](CO[C@@H]2O[C@H](CO)[C@@H](O)[C@H](O)[C@H]2O)[C@@H](O)[C@H](O)[C@H]1O)=C\C=C\C=C(C)\C=C\C=C(/C)C(=O)O[C@@H]1O[C@H](CO[C@@H]2O[C@H](CO)[C@@H](O)[C@H](O)[C@H]2O)[C@@H](O)[C@H](O)[C@H]1O [Crocin] | -15.7%
COc1cccc2oc(-c3ccccc3)cc(=O)c12 [5-methoxyflavone] | 10.2%
Cc1c(S(=O)(=O)O)oc2c1C(=O)C(=O)c1c-2ccc2c1CCCC2(C)C [Tanshinone IIA-sulfonic sodium] | 25.6%
N[C@@H](Cc1c[nH]c2ccc(O)cc12)C(=O)O [5-hydroxytryptophan (5-HTP)] | -2.38%
O=Cc1ccc(CO)o1 [5-Hydroxymethyl-2-furaldehyde] | 4.02%
C[C@]12CC[C@@H]3c4ccc(O)cc4CC[C@H]3[C@@H]1C[C@@H](O)[C@@H]2O [Estriol] | 3.81%
OC[C@@H](O)[C@@H](O)[C@@H](O)[C@@H](O)CO [Allitol] | 4.92%
C=C1CC[C@H]2O[C@]2(C)CC[C@@H]2[C@@H]1CC2(C)C [Caryophyllene oxide] | 10.6%
COc1cc2c(cc1OC)[C@@H]1Cc3ccc(OC)c(OC)c3CN1CC2 [Rotundine, TETRAHYDROPALMATINE HYDROCHLORIDE] | 13.1%
COc1cc2c(c(OC)c1OC)-c1c(cc3c(c1OC)OCO3)CC(C)C(C)C2 (stereo not given) [Schizandrin B] | 3.76%
COc1ccc2cc1Oc1ccc(cc1)C[C@H]1c3cc(c(OC)cc3CCN1C)Oc1c(OC)c(OC)cc3c1[C@H](C2)N(C)CC3 [Tetrandrine] | 89.4%
COc1ccc(-c2oc3cc(O)cc(O)c3c(=O)c2O)cc1 [kaempferide] | 7.67%
CC(=O)O[C@H]1C(=O)[C@@]2(C)[C@H]([C@H](OC(=O)c3ccccc3)[C@]3(O)C[C@H](OC(=O)[C@H](O)[C@@H](NC(=O)c4ccccc4)c4ccccc4)C(C)=C1C3(C)C)[C@]1(OC(C)=O)CO[C@@H]1C[C@@H]2O [Paclitaxel] | 83.5%
COc1c2c(cc3oc(CO)cc(=O)c13)O[C@H](C(C)(C)O)C2 [Cimifugin] | 12.3%
C[C@]12CCC(=O)C=C1CC[C@@H]1[C@@H]2CC[C@@]2(C)[C@H]1CC[C@]2(O)C(=O)CO [Cortodoxone] | 4.31%
COc1cc(C[C@H](C)[C@H](C)Cc2ccc3c(c2)OCO3)ccc1O [Anwuligan] | 6.4%
CCc1c2c(nc3ccc(OC(=O)N4CCC(N5CCCCC5)CC4)cc13)-c1cc3c(c(=O)n1C2)COC(=O)[C@]3(O)CC [Irinotecan hydrochloride trihydrate] | 75.5%
OCCc1ccc(O)c(O)c1 [3,4-Dihydroxyphenylethanol] | -10.7%
COc1cc2c(c(OC)c1OC)-c1c(cc(OC)c(OC)c1OC)CC(C)C(C)C2 (stereo not given) [Schizandrin A] | 12.2%
C/C(=C\C(=O)OCCCCCCCCC(=O)O)C[C@@H]1OC[C@H](C[C@@H]2O[C@H]2[C@@H](C)[C@H](C)O)[C@@H](O)[C@H]1O [Mupirocin] | -7.27%

Individual results from the list.
cell growth inhibition ratio with OCCc1ccc(O)c(O)c1 [3,4-Dihydroxyphenylethanol] is entered as -10.7%
cell growth inhibition ratio with C/C(=C\C(=O)OCCCCCCCCC(=O)O)C[C@@H]1OC[C@H](C[C@@H]2O[C@H]2[C@@H](C)[C@H](C)O)[C@@H](O)[C@H]1O [Mupirocin] is entered as -7.27%
